Assay results: publication PMC11567897

Experiments:
[1] = biological target: T1, SNAP-Staufen (UniProt P25159); assay: EMSA; conditions: EMSA: 50 nM RNA, 20 mM Tris-HCl pH 7.5, 150 mM NaCl, 2 mM MgCl2, 5% glycerol, 0.5 mM TCEP, 20 min at room temperature; 0.8% agarose 0.5x TBE gel at 4 C; recombinant protein; protein details: SNAP; label: atto633 (amino-allyl UTP, 1:10); probe letters rebuilt from the primers and the genome
T1 sequence (looked up, limits assumed): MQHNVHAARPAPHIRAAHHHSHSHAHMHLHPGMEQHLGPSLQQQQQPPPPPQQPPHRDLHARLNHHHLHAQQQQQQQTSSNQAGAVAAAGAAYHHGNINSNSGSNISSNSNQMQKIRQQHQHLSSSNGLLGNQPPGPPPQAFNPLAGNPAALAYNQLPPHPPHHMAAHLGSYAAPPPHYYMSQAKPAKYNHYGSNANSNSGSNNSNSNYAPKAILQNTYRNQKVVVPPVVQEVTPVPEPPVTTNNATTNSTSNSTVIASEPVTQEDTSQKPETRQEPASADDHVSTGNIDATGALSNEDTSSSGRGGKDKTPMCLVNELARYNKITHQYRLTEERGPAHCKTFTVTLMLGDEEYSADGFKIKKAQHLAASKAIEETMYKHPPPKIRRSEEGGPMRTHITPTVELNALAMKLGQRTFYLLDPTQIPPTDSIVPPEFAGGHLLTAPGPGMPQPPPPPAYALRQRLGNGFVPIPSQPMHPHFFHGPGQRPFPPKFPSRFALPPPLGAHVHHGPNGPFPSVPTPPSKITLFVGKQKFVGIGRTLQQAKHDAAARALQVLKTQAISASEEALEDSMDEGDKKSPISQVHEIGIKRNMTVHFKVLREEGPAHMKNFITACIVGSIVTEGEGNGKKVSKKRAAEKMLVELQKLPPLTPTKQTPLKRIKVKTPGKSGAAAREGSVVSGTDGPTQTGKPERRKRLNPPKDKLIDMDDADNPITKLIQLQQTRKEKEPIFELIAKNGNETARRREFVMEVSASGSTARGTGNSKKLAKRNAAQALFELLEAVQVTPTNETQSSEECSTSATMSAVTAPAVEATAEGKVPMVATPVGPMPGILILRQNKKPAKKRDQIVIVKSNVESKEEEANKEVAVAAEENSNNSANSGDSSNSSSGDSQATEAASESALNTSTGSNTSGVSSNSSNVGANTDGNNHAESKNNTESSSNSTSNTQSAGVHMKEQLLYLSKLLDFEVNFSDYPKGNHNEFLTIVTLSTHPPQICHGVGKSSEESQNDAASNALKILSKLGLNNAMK

[2] = biological target: T2, Bruno-EGFP (BrunoFL-EGFP) (UniProt O02374); assay: EMSA; conditions: 2 mM Mg2+, EMSA: 50 nM RNA, 20 mM Tris-HCl pH 7.5, 150 mM NaCl, 2 mM MgCl2, 5% glycerol, 0.5 mM TCEP, 20 min at room temperature, 0.8% agarose 0.5x TBE gel at 4 C, recombinant protein, residues 1-604, label: atto633 (amino-allyl UTP, 1:10), probe letters rebuilt from the primers and the genome
T2 sequence (looked up): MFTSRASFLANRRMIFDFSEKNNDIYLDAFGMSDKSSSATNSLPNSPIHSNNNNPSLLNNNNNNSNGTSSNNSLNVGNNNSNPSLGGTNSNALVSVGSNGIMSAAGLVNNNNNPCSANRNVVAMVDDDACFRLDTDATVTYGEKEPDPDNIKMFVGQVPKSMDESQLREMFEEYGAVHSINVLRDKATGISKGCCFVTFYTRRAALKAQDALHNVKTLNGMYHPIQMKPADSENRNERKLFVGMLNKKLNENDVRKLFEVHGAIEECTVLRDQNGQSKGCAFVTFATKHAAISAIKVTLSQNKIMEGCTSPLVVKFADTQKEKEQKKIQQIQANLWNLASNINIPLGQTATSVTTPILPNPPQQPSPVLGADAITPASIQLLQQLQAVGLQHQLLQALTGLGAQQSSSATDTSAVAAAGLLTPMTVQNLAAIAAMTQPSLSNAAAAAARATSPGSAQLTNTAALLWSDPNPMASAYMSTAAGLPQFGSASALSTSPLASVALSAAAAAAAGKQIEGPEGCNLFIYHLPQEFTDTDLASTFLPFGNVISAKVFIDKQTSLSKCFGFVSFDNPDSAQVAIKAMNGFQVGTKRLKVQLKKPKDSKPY

| Sequence | binding result [1] | further results |
| --- | --- | --- |
| GGGUGGAAAAUUCGCUUGCACAAAAUCAACGCCGCGGCUGAUUUAUUAUUGAUGUGCUCAAGCAAAUUCA [WTOES (WT67)] | binds | – |
| GGGUGGAAAAUUCGCUUGCACAAAAUCAACGCCGCGGCUGAUUUAUUAUUGAUGUGCUCAAGCAAAUUCAAGUGAAGCAUUUGCGCGAUUUUCGUCUUUCUGUUUCCGUUUGCAAAAAAGUUUAUAAAAUGCUUACACUCUGCUGCAGACACGCCAACCGGAAGUGCGCACUAAGCGCUUGUUUGUAGCACAGUGUAGAAUUCUGGCGUAAUUUACAGCUCUACUUUAAAGUCUUCUAGAUAGCUAUCUACUAUUUAUAAACUUAUUUAUUGUCUUGAAUGUAUGUUAAUUGUAUGUAUUGAUGGUGAUCACGUUUUUUUUGUCCUAUAACAAGCUGCAAUGUAAAAUCCAAAAAAAAAAUG [WT359] | – | binding result [2]: binds |
| GGGUGGAAAAUUCGCUUGCACAAAAUCAACGUUGCGGCUGAUUUAUUAUUGAUGUGCUCAAGCAAAUUCA [UUOES (UU67)] | binds | – |
| GGGUGGAAAAUUCGCUUGCACAAAAUCAACGUUGCGGCUGAUUUAUUAUUGAUGUGCUCAAGCAAAUUCAAGUGAAGCAUUUGCGCGAUUUUCGUCUUUCUGUUUCCGUUUGCAAAAAAGUUUAUAAAAUGCUUACACUCUGCUGCAGACACGCCAACCGGAAGUGCGCACUAAGCGCUUGUUUGUAGCACAGUGUAGAAUUCUGGCGUAAUUUACAGCUCUACUUUAAAGUCUUCUAGAUAGCUAUCUACUAUUUAUAAACUUAUUUAUUGUCUUGAAUGUAUGUUAAUUGUAUGUAUUGAUGGUGAUCACGUUUUUUUUGUCCUAUAACAAGCUGCAAUGUAAAAUCCAAAAAAAAAAUG [UU359] | – | binding result ([2]; fewer higher-order complexes than WT359): binds |

Protein sequences can lack the tags named with them. For some of these results: Construct, isoform or probe ends are uncertain for at least one entry.
